Experimental data: PubChem BioAssay AID2685 (National Center for Advancing Translational Sciences (NCATS), 2010)
The other results are listed elsewhere or left out. Shown are side measurements of this screen, not its main read-out; they come without a call. The list favours compounds with an active or inconclusive main result. Potencies come from curve fits of mixed quality, noted in brackets.

Assay: qHTS Assay for Lipid Storage Modulators in Drosophila S3 Cells;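 on cell number change: cells counted by Cell Tracker Red CMTPX staining in the red channel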
Conditions: BODIPY lipid droplet fluorescence, 18-24 h; for cell number change: measured here: cell count max response, cells fed with added oleic acid
Method in brief: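 Drosophila S3 cells got compounds at several concentrations plus oleic acid (400 uM solution). Laser-scanning cytometry with 488 nm excitation read lipid droplets at 500-530 nm and cells at 575-640 nm. Percent activity was relative to 20 uM Triacsin C.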

[1] = measured here: lipid fluorescence (Fed channel) AC50, cells fed with added oleic acid
[2] = measured here: cell number channel AC50, cells fed with added oleic acid

| SMILES | cell number change [%] | AC50 [1] | AC50 [2] |
| --- | --- | --- | --- |
| Oc1ccc(N=Nc2ccc(Br)cc2)c(O)c1 | -40.8 | 20.6 µM [falling, partial curve] |  |
| O=C(/C(=N/O)n1cncn1)c1ccccc1Cl | -39.6 |  | 1.03 µM [falling, full curve] |
| O=C(O)c1ccccc1C(=O)N1CCc2c([nH]c3ccccc23)C1C(F)(F)F (configuration not stated) | -28.9 | 29.1 µM [falling, single point] |  |
| CCOC(=O)c1c(NC(C)=O)sc2c1CCN(Cc1ccccc1)C2 | -12.7 | 23.1 µM [falling, single point] |  |
| CCOC(=O)N1CCN(Cc2nc3cc(NC(=O)c4ccco4)ccc3n2C)CC1 | 18.4 |  |  |
| CN(CC(=O)Nc1ccc(Cl)cc1F)C1CCS(=O)(=O)C1 (configuration not stated) | -6.13 | 0.13 µM [rising, partial curve, poor fit] |  |
| Cn1nc(C(=O)N2CCN(c3ccc(Cl)cc3)CC2)c2c1-c1ccccc1S(=O)(=O)C2 |  | 29.1 µM [rising, single point] |  |
| O=C(CSc1nnc(-c2cccc(F)c2)o1)N1CCOCC1 | -16.1 | 0.58 µM [falling, single point] |  |
| CCC(CC)C(=O)Oc1c(Sc2ccccc2[N+](=O)[O-])c(C)nn1C(C)(C)C | -24.7 | 20.6 µM [falling, single point] |  |
| CS(=O)(=O)NCCCNc1ccc(Cl)cc1[N+](=O)[O-] | 1.98 | 29.1 µM [rising, single point] |  |
| CC(C)(C)NC(=O)CN(Cc1ccc2c(c1)OCO2)C(=O)CCC(=O)Nc1nccs1 | 20.2 | 32.6 µM [rising, single point] |  |
| O=C1c2ccccc2C(=O)N1CCCC(=O)N1CCc2ccccc21 | 66.4 |  | 0.82 µM [rising, full curve] |
| O=C(O)c1ccc(-c2ccccn2)s1 | -31.4 | 16.4 µM [falling, single point] | 16.4 µM [falling, single point] |
| Cc1ccc2[nH]cc(S(=O)(=O)c3ccc(C)c(C)c3)c(=O)c2c1 |  | 29.1 µM [rising, single point] |  |
| O=C(NNc1cccc(Cl)n1)Nc1cccc(Cl)c1 | 26.5 | 1.16 µM [rising, full curve] | 0.411 µM [rising, full curve, poor fit] |
| COC(=O)c1ccc(Oc2nc(NC(C)C)nc(SC)n2)cc1 | -14.3 |  |  |
| c1ccc2c(Nc3nnc(-c4ccncc4)s3)cccc2c1 | -12.4 |  |  |
| CCOc1ccccc1NC(C)C(=O)Nc1cc(C(F)(F)F)ccc1N1CCOCC1 (configuration not stated) | 5.12 | 0.0326 µM [rising, full curve] |  |
| CCOc1ccc(NC(=O)CN(C)C(=O)/C=C/c2ccco2)cc1OCC | -11.7 |  |  |
| CCOc1ccc(S(=O)(=O)NCCC(=O)NCC(c2ccc(OC)cc2)N2CCCCC2)cc1 (configuration not stated) | -25 | 1.16 µM [falling, full curve, poor fit] |  |
| Cc1c(C(=O)N2CCN(Cc3ccc4c(c3)OCO4)CC2)sc2ncnc(N3CCN(c4ccccc4)CC3)c12 | 13.1 | 18.4 µM [rising, single point] |  |

| SMILES | cell number change [%] | AC50 [1] | AC50 [2] |
| --- | --- | --- | --- |
| COC(=O)c1ccc(C2C(C(=O)c3ccc(C)o3)=C(O)C(=O)N2c2cc(C)on2)cc1 (configuration not stated) | 4.01 | 23.1 µM [rising, partial curve] |  |
| Cc1ccc(CCNC(=O)C2CCCN(S(=O)(=O)c3c(C)noc3/C=C/N(C)C)C2)cc1 (configuration not stated) | 6.06 | 0.731 µM [falling, full curve] |  |
| O=C(NCCC1CCCCN1S(=O)(=O)c1ccccc1)C(=O)Nc1ccc(F)cc1F (configuration not stated) | -31 |  | 7.31 µM [falling, partial curve, poor fit] |
| O=C(OCN1C(=O)c2ccccc2C1=O)c1ccc(Cl)nc1 | 13.8 | 0.082 µM [falling, single point] |  |
| Cc1csc(NC(=O)CCn2c(=O)sc3ccccc32)n1 | -16.3 | 4.11 µM [rising, partial curve, poor fit] |  |
| Cc1ccc(S(=O)(=O)N2CCN(c3nc(C(C)C)c4c(c3C#N)CC(C)(C)OC4)CC2)cc1 | 13.5 | 4.11 µM [rising, partial curve, poor fit] |  |
| Cc1nc(N2CCCCCC2)c2ccccc2n1 | 1.47 | 29.1 µM [rising, single point] |  |
| CCC(C)Sc1cc(-c2nc3ccccn3c2NC2CCCCC2)ccc1OC (configuration not stated) | 6.73 | 29.1 µM [rising, single point] |  |
| O=C(CCNC(=O)c1ccco1)Nc1ccc(SC(F)F)cc1 | -11.1 | 32.6 µM [falling, single point] |  |
| CN1C(=O)C(CC(=O)Nc2ccc(F)cc2)N(Cc2cccs2)C1=S (configuration not stated) | 12.2 | 6.51 µM [falling, single point] |  |
| CC(C)c1ccc(NC(=O)NC(C)c2ccc3c(c2)OCO3)cc1 (configuration not stated) | 19.1 | 0.251 µM [rising, full curve, poor fit] |  |
| NNC(=S)Nc1ccc(Cl)cc1 | 3.08 |  | 0.00517 µM [falling, full curve, poor fit] |
| CCOc1ccccc1N(CC(=O)N(C)Cc1ccccc1)S(=O)(=O)c1ccccc1 | 19.5 | 0.231 µM [falling, full curve, poor fit] |  |
| COc1ccc(NC(=O)CN(c2cc(C)cc(C)c2)S(=O)(=O)c2c(C)n[nH]c2C)cc1 | 24.3 | 29.1 µM [rising, single point] |  |
| Cc1ccc(C)c(Cc2c(C)nc3c(C(=O)N4CCOCC4)cnn3c2C)c1 | -37.3 |  | 29.1 µM [falling, single point] |
| FC(F)(F)c1cc(-c2cccs2)nc2nc(N3CCOCC3)sc12 | -55.3 | 29.1 µM [falling, single point] |  |
| CC1Cc2cc(-c3csc(NC(=O)Cc4cccs4)n3)ccc2N1S(C)(=O)=O (configuration not stated) |  | 6.51 µM [rising, single point] | 6.51 µM [rising, single point] |
| Cc1ccc(S(=O)(=O)N(C)CC(O)Cn2c3ccccc3c3ccccc32)cc1 (configuration not stated) | -59.7 | 5.17 µM [rising, single point] | 29.1 µM [falling, single point] |
| CC1(C)CC(=O)C2=C(C1)N(CCN1CCOCC1)C1=C(C(=O)CC(C)(C)C1)C2c1cccc(Cl)c1 | 22.2 | 0.103 µM [rising, full curve, poor fit] |  |
| COc1ccc(S(=O)(=O)N2CCC(NC(=O)OCc3c(Cl)cccc3Cl)CC2)cc1 | 54.9 |  | 20.6 µM [rising, partial curve] |
| N#Cc1nc(-c2ccc(OCc3ccccc3)cc2)oc1NCCCn1ccnc1 | -32.2 | 0.651 µM [rising, single point] | 9.2 µM [falling, partial curve] |

| SMILES | cell number change [%] | AC50 [1] | AC50 [2] |
| --- | --- | --- | --- |
| O=C(O)c1ccc(N2CCCCC2)cc1O | 2.69 | 0.146 µM [falling, full curve, poor fit] |  |
| CC(=O)c1cccc(N2Cc3ccccc3C2=NC(=O)CCl)c1 | -50.7 |  |  |
| CC1CCc2sc(C(=O)NNC(=S)NC3CC3)cc2C1 (configuration not stated) | -10.3 | 0.731 µM [falling, full curve] |  |
| c1ccc2cc(CN3CCOCC3)ccc2c1 | -22.3 | 0.731 µM [falling, full curve] | 0.82 µM [falling, full curve, poor fit] |
| O=C(CN1C(=O)NC2(CCc3ccccc32)C1=O)c1c[nH]c2ccccc12 (configuration not stated) | 59.6 |  | 14.6 µM [rising, partial curve] |
| CC1(c2ccc3ccccc3c2)NC(=O)N(CC(=O)O)C1=O (configuration not stated) | 20.4 | 0.058 µM [falling, full curve] |  |
| O=C(CCCc1c[nH]c2ccccc12)N1CCOCC1 | 44.6 |  | 29.1 µM [rising, single point] |
| CC1(C)Cc2c(sc3nc(=S)[nH]c(N)c23)CO1 | 7.69 |  |  |
| COc1cc(C)ccc1OCCOCCOc1ccccc1[N+](=O)[O-] | 17 | 0.164 µM [rising, full curve, poor fit] |  |
| Cc1c(NC(=O)C2CCCN2S(=O)(=O)c2ccc(Cl)cc2)c(=O)n(-c2ccccc2)n1C (configuration not stated) | 18.6 |  |  |
| CC(/C=N/NC(=O)c1cccc(F)c1)=C\c1ccccc1 | 20.4 | 22.4 µM [falling, single point] |  |
| CCOc1ccccc1N1CCN(CC(=O)N(CC(C)C)c2c(N)n(CC(C)C)c(=O)[nH]c2=O)CC1 | 36.1 | 1.64 µM [rising, single point] | 18.4 µM [rising, single point] |
| CCN(C(=O)CSc1ncccc1C(=O)O)C1CCCCC1 | -20.2 | 0.731 µM [falling, partial curve] |  |
| CC1=CCC2C(=O)N(C(C)c3ccccc3)C(=O)C2C1 (configuration not stated) |  | 18.4 µM [rising, partial curve] |  |
| Nc1ccc(O)c(-c2nc3ccccc3s2)c1 |  | 16.4 µM [rising, partial curve] |  |
| CCOc1ccccc1C(=O)NCC(=O)NNC(=O)c1cccc(S(=O)(=O)Nc2ccc(OC)cc2)c1 | 30.1 | 18.4 µM [rising, single point] |  |
| COc1ccc(OC)c(C2N(c3cc(C)on3)C(=O)C3CCCN32)c1 (configuration not stated) | -13.8 | 0.00461 µM [falling, full curve, poor fit] |  |
| O=C(c1cc2ccccc2o1)N1CCN(S(=O)(=O)c2ccccc2)CC1 | -25 |  | 0.00651 µM [falling, full curve, poor fit] |
| CC(=O)c1sc(NC(=O)CCS(=O)(=O)c2ccc(C)cc2)nc1C | -23.7 | 11.6 µM [falling, partial curve] |  |

3 structures from above, arranged by count of non-hydrogen atoms, high to low:

| SMILES | cell number change [%] | AC50 [1] | AC50 [2] |
| --- | --- | --- | --- |
| COc1ccc(OC)c(C2N(c3cc(C)on3)C(=O)C3CCCN32)c1 (configuration not stated) | -13.8 | 0.00461 µM [falling, full curve, poor fit] |  |
| COC(=O)c1ccc(Oc2nc(NC(C)C)nc(SC)n2)cc1 | -14.3 |  |  |
| CC1(c2ccc3ccccc3c2)NC(=O)N(CC(=O)O)C1=O (configuration not stated) | 20.4 | 0.058 µM [falling, full curve] |  |
